For at least one compound, name, drawing or mass did not settle the structure.
Experiments:
E. coli UTI89 persisters = assay: Persister assay (CFU enumeration and SYBR Green/PI); type: cell-based, Escherichia coli; conditions: ampicillin 100, ofloxacin 5, polymycin B 10, gentamicin 20 μg/mL
Procedure: Stationary phase cultures of E. coli UTI89 were treated with ofloxacin (5 μg/mL) for 4 hours to enrich for persisters, followed by drug exposure with different antibiotics including ampicillin (100 μg/mL), ofloxacin (5 μg/mL), polymycin B (10 μg/mL) and gentamicin (20 μg/mL). The bacterial viability was determined by CFU enumeration and SYBR Green/PI assay as described above.

[1] = test system: stationary phase B. burgdorferi persisters (strain B31); assay: SYBR Green I/PI viability assay (plate reader), FDA-approved drug library screen
[2] = test system: stationary phase B. burgdorferi persisters (strain B31); assay: epifluorescence microscope counting after SYBR Green I/PI staining, FDA drug screen

| Structure (SMILES) | level of persisters over 7 days (words; CFU and SYBR Green/PI) (E. coli UTI89 persisters) | activity against stationary phase B. burgdorferi (words; SYBR Green I/PI assay) [1] | bactericidal activity by microscopic counting [2] |
| --- | --- | --- | --- |
| CC1COc2c(N3CCN(C)CC3)c(F)cc3c(=O)c(C(=O)O)cn1c23 (stereo not drawn) [Ofl, ofloxacin] | stayed constant |  |  |
| Cc1cc(/C=C/c2ccc3cc(N(C)C)ccc3[n+]2C)c(C)n1-c1ccccc1 [pyrvinium pamoate] |  | very high activity | no bactericidal activity |
